Results taken from PMC3261892.
No constants are given. Whether binding was seen depends on the method and setting.

Molecular target: Human Nova2-KH3 fragment (residues 406–492) (human) (UniProt Q9UNW9)
Test: AUC; sedimentation velocity; 60,000 r.p.m, 4°C, absorbance detection; approximately 43 µM FILIA-N, 84 µM Nova2-KH3; 50 mM Tris pH 8.0, 200 mM NaCl, 1 mM TCEP; both purified

binding: no binding (tested: 84 µM)
B1: Human Nova2-KH3 fragment (residues 406–492) (domain or fragment, UniProt Q9UNW9 406-492)
chain: KELVEIAVPENLVGAILGKGGKTLVEYQELTGARIQISKKGEFLPGTRNRRVTITGSPAATQAAQYLISQRVTYEQGVRASNPQKVG
